Source: publication doi:10.1101/2022.10.09.511391
Where two headings read alike, the source gives them in different places. Results are given in words; binding and its absence hold for the method and conditions named. Binding seen in cells or lysates may run through a third protein. Some results given as binding are weak or reduced against the parent protein; the word gives no strength. Sequences can lack the tags named with a protein.

Chains of the proteins cited; added tags and fusions are not shown.
UniProt Q99836: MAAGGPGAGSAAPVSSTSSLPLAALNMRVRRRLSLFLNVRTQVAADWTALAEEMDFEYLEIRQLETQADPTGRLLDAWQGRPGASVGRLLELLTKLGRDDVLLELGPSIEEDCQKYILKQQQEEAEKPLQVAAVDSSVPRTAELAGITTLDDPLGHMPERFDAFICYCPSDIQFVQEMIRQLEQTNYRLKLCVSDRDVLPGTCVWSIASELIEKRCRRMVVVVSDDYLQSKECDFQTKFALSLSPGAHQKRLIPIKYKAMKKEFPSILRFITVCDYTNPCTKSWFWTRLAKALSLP

Columns and labels:
Assay in all cases: co-IP
[1] = biological target: T1, HA-Fli1 (pcDNA3-HA-Fli1, full-length mouse Fli1) (mouse) (UniProt Q9JJ28)
T1 sequence: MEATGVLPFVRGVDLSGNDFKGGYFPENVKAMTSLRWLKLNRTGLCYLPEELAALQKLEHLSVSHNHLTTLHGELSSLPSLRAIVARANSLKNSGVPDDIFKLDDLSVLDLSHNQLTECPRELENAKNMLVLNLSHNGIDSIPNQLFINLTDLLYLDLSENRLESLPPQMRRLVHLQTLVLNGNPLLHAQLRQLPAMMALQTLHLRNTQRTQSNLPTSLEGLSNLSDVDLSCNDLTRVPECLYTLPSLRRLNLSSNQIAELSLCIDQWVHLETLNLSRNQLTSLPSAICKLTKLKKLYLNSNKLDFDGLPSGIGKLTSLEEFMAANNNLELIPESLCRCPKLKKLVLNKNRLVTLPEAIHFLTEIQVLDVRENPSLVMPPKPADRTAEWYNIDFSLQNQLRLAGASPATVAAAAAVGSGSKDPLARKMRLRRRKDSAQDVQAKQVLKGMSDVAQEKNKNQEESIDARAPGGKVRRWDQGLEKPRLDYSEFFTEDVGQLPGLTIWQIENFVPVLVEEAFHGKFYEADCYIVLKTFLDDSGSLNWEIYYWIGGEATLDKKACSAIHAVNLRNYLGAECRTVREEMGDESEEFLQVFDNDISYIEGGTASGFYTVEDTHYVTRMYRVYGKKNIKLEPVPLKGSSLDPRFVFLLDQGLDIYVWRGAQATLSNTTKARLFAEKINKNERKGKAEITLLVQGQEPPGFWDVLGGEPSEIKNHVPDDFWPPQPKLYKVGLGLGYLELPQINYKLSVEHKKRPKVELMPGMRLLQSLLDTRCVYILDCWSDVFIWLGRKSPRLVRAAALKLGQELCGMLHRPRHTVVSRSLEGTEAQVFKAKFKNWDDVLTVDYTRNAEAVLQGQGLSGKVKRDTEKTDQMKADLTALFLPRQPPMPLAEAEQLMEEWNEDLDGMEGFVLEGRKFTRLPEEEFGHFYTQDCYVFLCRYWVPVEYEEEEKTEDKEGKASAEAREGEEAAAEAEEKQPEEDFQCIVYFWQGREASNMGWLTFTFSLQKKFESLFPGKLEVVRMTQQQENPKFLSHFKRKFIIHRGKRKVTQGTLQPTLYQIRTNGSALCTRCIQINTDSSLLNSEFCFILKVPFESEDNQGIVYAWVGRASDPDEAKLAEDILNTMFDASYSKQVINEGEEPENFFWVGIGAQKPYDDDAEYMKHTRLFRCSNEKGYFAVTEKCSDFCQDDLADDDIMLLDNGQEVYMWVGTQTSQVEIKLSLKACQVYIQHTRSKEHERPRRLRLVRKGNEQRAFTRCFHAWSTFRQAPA

[2] = biological target: HA-Fli1-LRR (HA-tagged Fli1 N-terminal 400 amino acids) (UniProt Q9JJ28)
[3] = biological target: T2, Flag-TRB3 (UniProt Q8K4K2)
T2 sequence: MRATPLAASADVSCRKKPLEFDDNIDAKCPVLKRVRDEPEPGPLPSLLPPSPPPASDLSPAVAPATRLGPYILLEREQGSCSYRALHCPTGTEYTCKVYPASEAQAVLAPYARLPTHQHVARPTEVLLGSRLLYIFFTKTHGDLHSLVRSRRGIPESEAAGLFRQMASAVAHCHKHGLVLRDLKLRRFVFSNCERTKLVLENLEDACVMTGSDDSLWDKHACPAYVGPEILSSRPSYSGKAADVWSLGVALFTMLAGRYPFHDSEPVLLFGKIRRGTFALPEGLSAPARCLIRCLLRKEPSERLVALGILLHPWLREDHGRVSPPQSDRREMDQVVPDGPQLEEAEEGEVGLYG

[4] = biological target: T1, HA-Fli1 (pcDNA3-HA-Fli1, full-length mouse Fli1) (mouse); remark: listed apart in the source

Myc-MyD88 (from UniProt Q99836 1-296) was tested, and the binding [1] was “binds”.

B1: Flag-TRB3 (protein, UniProt Q8K4K2 1-354)
chain: T2 sequence
In the case of B1, the binding [2] is reported as “binds”.

B2: Flightless-homolog 1 (Fli1), endogenous in Min6 cells (protein, UniProt Q9JJ28 1-1271)
chain: T1 sequence
For B2, the binding [3] was “binds”.

B3: HA-TRB3 (protein, UniProt Q8K4K2 1-354)
chain: T2 sequence
In the case of B3, the binding [4] is reported as “binds”.

B4: Myc-TRB3 (protein, UniProt Q8K4K2 1-354)
chain: T2 sequence
For B4, the binding [4] was “binds”.
